Results on three molecules are retold here after paper PMC4180030.

By UniProt entry, the sequences of proteins in these tests, tags left out.
UniProt Q8DIQ1: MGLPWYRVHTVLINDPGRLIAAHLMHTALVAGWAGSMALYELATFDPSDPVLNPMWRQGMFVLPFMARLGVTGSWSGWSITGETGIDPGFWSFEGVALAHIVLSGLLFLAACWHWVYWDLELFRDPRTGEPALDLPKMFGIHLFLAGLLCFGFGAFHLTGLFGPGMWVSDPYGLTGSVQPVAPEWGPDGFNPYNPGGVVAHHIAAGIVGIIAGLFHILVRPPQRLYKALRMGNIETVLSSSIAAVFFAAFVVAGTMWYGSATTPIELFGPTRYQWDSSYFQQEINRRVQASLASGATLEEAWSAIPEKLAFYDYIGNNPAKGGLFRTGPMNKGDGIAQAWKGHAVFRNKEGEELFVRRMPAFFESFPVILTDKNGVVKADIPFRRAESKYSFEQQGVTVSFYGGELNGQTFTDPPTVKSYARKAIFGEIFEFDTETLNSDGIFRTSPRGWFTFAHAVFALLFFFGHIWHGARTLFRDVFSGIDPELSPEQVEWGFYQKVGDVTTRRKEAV

Test [1] concerns the target His-tagged CP43 of T. elongatus (Thermosynechococcus elongatus) (UniProt Q8DIF8). The test is described as follows: pull-down; beta-DDM-solubilised thylakoid membrane extract of the CP43-His strain bound to cobalt resin (buffer A, pH 6.0, 4 °C, 2 h), four washes, elution with 100 mM imidazole, immunoblotting; non-tagged WT extract and resin lacking Co as controls. (In western blotting, separated proteins are transferred to a membrane and probed.)

The target of test [2] is His6-tagged CP47 of T. elongatus (Thermosynechococcus elongatus) (UniProt Q8DIQ1). The test is described as follows: co-purification by Ni-affinity and anion-exchange chromatography, immunoblotting; dimeric His-tagged PSII complexes from the CP47-His strain (Nowaczyk et al. 2006, modified), beta-DDM extract on Ni resin, elution with 100 mM histidine, then UNO Q-12 column.

Results are given in words; binding and its absence hold for the method and conditions named. For some of these results: In cells and extracts the contact can be indirect. Some results given as binding are weak or reduced against the parent protein; the word gives no strength.

B1: CyanoP (PsbP homologue) of T. elongatus (protein, UniProt Q8DH84 20-183)
chain: CSATSGLQAYVDSYDGYEFLYPRGWVQVQVEDPVDVVFHDIIETTENVSVVVNTVASTKSLEELGSPEEVGDRLLRNIIAPSESGRSSALIAATSQKADDKTYYILEYAVTLPGDGNTAQQRHNLSSIAVSRGKVYTLSVSAPEERWPKVEDQFKTIVSSFTVY
Turning to B1, in test [1], the binding entry is recorded as “binds weakly”.

B2: CyanoQ (Tll2057) from Thermosynechococcus elongatus (protein, UniProt Q8DHA2 24-152)
chain: CGGPSATTPPPPTYSELQITRIQDYLRDIEKNAERFADLEVSVAKGDWQEARNIMRGPLGEMLMDMRALNRNLLAKDQPTPTALTRALTDDFLKIDQGADLDSVTVAQEGFREAEADFKAYLNSLPELS
As to B2, the binding entry in test [2] and in test [1] was “binds” each time.

B3: Psb27 of T. elongatus (protein, UniProt Q8DG60 22-134)
chain: CANVPTGLTGNFREDTLALISSLREAIALPENDPNKKAAQAEARKKLNDFFALYRRDDSLRSLSSFMTMQTALNSLAGHYSSYPNRPLPEKLKARLEQEFKQVELALDREAKS
B3: the binding entry in test [1] is “binds”.
